Test in all cases: co-IP; Myc-tagged kinases and HA-tagged IRF5 co-expressed in 293 ET cells; lysates immunoprecipitated with anti-myc antibody; western blot
A general note: Immunoblotting shows a protein as a band on a membrane.

Chains of the proteins cited; added tags and fusions are not shown.
UniProt Q14289: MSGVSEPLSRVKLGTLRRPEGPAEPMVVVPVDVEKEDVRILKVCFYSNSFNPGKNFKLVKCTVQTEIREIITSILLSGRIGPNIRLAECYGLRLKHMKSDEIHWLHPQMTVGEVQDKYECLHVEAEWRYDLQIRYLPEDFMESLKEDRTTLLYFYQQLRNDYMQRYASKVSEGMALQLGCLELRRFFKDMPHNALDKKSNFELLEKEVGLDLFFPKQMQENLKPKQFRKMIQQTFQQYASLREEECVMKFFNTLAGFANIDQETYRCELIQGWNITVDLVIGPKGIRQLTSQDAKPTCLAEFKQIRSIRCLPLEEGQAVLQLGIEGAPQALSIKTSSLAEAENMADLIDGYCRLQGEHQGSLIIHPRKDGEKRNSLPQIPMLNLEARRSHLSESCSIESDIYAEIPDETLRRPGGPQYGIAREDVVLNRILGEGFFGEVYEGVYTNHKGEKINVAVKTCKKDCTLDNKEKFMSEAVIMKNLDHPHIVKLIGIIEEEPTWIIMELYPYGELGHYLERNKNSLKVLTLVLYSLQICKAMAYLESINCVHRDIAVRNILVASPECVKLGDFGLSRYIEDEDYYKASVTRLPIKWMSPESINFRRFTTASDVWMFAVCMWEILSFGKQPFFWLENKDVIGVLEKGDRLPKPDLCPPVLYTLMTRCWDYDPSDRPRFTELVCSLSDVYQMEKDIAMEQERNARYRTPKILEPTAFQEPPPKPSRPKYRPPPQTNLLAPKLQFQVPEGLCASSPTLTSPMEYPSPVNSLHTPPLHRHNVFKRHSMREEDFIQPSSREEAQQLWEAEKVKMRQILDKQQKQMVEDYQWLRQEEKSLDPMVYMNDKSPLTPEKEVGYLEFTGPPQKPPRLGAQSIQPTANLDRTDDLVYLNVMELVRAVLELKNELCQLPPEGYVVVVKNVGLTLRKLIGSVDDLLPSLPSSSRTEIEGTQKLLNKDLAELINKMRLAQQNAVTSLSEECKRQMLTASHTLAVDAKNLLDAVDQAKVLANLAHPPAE

One assay addresses T1, Myc-tagged ARK5 (UniProt O60285).
T1 sequence: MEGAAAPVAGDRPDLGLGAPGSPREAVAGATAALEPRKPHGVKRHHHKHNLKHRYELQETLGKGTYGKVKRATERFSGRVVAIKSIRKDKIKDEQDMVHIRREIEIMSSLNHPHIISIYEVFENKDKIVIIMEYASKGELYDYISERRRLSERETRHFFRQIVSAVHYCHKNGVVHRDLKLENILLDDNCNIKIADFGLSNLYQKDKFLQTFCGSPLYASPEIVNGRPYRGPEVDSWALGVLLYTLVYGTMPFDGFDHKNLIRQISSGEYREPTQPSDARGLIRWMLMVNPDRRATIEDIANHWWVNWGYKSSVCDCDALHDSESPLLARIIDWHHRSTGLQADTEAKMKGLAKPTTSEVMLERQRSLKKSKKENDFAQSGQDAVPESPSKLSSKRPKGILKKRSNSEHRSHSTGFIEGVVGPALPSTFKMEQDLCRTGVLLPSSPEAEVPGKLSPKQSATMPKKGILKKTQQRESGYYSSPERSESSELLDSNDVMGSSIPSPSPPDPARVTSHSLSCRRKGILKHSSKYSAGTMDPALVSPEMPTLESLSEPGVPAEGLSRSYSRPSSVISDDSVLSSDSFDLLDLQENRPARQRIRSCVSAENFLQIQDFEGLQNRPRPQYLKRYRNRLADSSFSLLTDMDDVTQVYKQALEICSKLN

In a further assay the target is T2, Myc-tagged HIPK4 (UniProt Q8NE63).
T2 sequence: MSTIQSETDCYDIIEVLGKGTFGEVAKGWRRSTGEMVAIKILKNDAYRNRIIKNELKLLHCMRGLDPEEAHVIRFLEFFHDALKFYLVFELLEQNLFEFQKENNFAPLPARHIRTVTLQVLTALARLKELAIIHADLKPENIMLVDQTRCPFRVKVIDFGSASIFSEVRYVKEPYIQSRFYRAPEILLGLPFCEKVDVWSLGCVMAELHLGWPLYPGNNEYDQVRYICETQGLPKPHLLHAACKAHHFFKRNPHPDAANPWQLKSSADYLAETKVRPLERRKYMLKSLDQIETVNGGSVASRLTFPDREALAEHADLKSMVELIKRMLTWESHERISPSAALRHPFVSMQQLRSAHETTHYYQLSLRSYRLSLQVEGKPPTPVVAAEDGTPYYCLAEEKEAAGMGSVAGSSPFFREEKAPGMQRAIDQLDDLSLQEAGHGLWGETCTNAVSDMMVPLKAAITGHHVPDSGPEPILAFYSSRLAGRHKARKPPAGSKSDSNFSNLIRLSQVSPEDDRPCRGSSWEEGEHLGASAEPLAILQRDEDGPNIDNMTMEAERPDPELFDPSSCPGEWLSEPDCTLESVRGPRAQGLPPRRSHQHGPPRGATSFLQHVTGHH

The target in the next assay is Myc-tagged JNK2 (UniProt P45984).
Assay [1] deals with Myc-tagged PYK2 (pEAK8-myc) (UniProt Q14289).

No constants are given. Whether binding was seen depends on the method and setting. In cells and extracts the contact can be indirect. Binding can be weak; no strength is given. For some of these results: Sequences can lack the tags named with a protein.

HA-tagged IRF5 (from UniProt Q13568-3): the binding result with Myc-tagged ARK5 is “binds weakly”; with Myc-tagged HIPK4 it was “binds weakly”; with Myc-tagged JNK2 it was “binds weakly”; in assay [1] it was “binds”.

These data come from paper PMC8602323.
